PubChem BioAssay AID1259254 – NCATS | 2017

Aim: 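Finding genes that stop cells copying their DNA twice in one cycle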 (primary screen)
Cell system: human HCT116 colorectal cancer cells
Reagents: single siRNA against human genes
Duration: 3 days
Measurement: 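Imaged Hoechst DNA stain sorts each cell into a cycle phase by DNA amount; per plate, G2 fraction set to 0% for non-targeting and 100% for GMNN siRNA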
Scale: G2 robust z-score and G2 cells, % of GMNN control: higher = more G2 cells, more excess DNA replication; raw share of cells in G2: higher = larger share of cells with G2 DNA content
Call rule: 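Active siRNAs have a G2 robust z of 5 or more median absolute deviations over the median, which in these data means about 38% or higher of GMNN control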
In all, the deposit lists about 59,000 reagents; shown is a random part of them. About 1,550 of all reagents (2.6%) were called active. 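G2 share is only a proxy for re-replication; each gene was hit by three separate siRNAs, and active genes were retested.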 Raw values vary from plate to plate and are shown uncorrected. A number with no mark means an inactive call. The numbers tell different reagents against one gene apart. Not given: the amount of reagent.

| gene knocked down | siRNA no. | G2 robust z-score | G2 cells, % of GMNN control | raw share of cells in G2 (%) |
| --- | --- | --- | --- | --- |
| EIF3CL (GeneID 728689) | 1 | 5.12 (active) | 39 | 18.9 |
| EIF3CL (GeneID 728689) | 2 | 4.06 | 31.6 | 13.5 |
| EIF3CL (GeneID 728689) | 3 | 3.09 | 24.7 | 12.7 |
| PISD (GeneID 23761) | 1 | -1.29 | -6.12 | 1.99 |
| PISD (GeneID 23761) | 2 | -0.991 | -4.01 | 2.86 |
| PISD (GeneID 23761) | 3 | -0.204 | 1.53 | 6.86 |
| NAPA (GeneID 8775) | 1 | -0.0522 | 2.6 | 4.39 |
| NAPA (GeneID 8775) | 2 | 0.283 | 4.96 | 8.2 |
| NAPA (GeneID 8775) | 3 | -0.164 | 1.81 | 4.1 |
| AMBP (GeneID 259) | 1 | -1.11 | -4.81 | 2.2 |
| AMBP (GeneID 259) | 2 | 6.08 (active) | 45.7 | 20.3 |
| AMBP (GeneID 259) | 3 | 1.03 | 10.2 | 8.71 |
| RAP1B (GeneID 5908) | 1 | -0.512 | -0.634 | 4.76 |
| RAP1B (GeneID 5908) | 2 | -0.425 | -0.0202 | 4.67 |
| RAP1B (GeneID 5908) | 3 | 1.17 | 11.2 | 7.88 |
| EVC (GeneID 2121) | 1 | 3.11 | 24.8 | 16.9 |
| EVC (GeneID 2121) | 2 | 0.447 | 6.12 | 6.33 |
| EVC (GeneID 2121) | 3 | -0.835 | -2.9 | 2.38 |
| CDKL3 (GeneID 51265) | 1 | -0.593 | -1.2 | 5.21 |
| CDKL3 (GeneID 51265) | 2 | 3.23 | 25.7 | 14.5 |
| CDKL3 (GeneID 51265) | 3 | 0.0818 | 3.54 | 4.82 |
| RPL23P5 (GeneID 402120) | 1 | 0.151 | 4.03 | 5.28 |
| RPL23P5 (GeneID 402120) | 2 | 2.06 | 17.5 | 10.5 |
| RPL23P5 (GeneID 402120) | 3 | 0.284 | 4.96 | 6.85 |
| NTNG1 (GeneID 22854) | 1 | -0.678 | -1.8 | 2.93 |
| NTNG1 (GeneID 22854) | 2 | 0.492 | 6.43 | 8.85 |
| NTNG1 (GeneID 22854) | 3 | -0.287 | 0.947 | 3.74 |
| TAOK3 (GeneID 51347) | 1 | -0.971 | -3.86 | 4.39 |
| TAOK3 (GeneID 51347) | 2 | -0.785 | -2.56 | 4.26 |
| TAOK3 (GeneID 51347) | 3 | -0.11 | 2.19 | 4.38 |
| KDELR2 (GeneID 11014) | 1 | -0.147 | 1.93 | 4.47 |
| KDELR2 (GeneID 11014) | 2 | 1.2 | 11.4 | 11 |
| KDELR2 (GeneID 11014) | 3 | -1.12 | -4.89 | 3.57 |
| GSTM2 (GeneID 2946) | 1 | -0.159 | 1.85 | 5.72 |
| GSTM2 (GeneID 2946) | 2 | -0.618 | -1.38 | 3.69 |
| GSTM2 (GeneID 2946) | 3 | 0.112 | 3.76 | 7.11 |
| FLT1 (GeneID 2321) | 1 | 0.742 | 8.19 | 8.31 |
| FLT1 (GeneID 2321) | 2 | -0.139 | 1.99 | 6.08 |
| FLT1 (GeneID 2321) | 3 | -0.00258 | 2.95 | 5.06 |
| GNPAT (GeneID 8443) | 1 | 1.08 | 10.6 | 8.98 |
| GNPAT (GeneID 8443) | 2 | -0.353 | 0.483 | 4.76 |
| GNPAT (GeneID 8443) | 3 | 3.79 | 29.6 | 15.3 |
| TAS1R3 (GeneID 83756) | 1 | 2.95 | 23.8 | 12 |
| TAS1R3 (GeneID 83756) | 2 | -0.478 | -0.396 | 3.34 |
| TAS1R3 (GeneID 83756) | 3 | -0.257 | 1.16 | 2.76 |
| MRE11 (GeneID 4361) | 1 | -0.692 | -1.9 | 4.62 |
| MRE11 (GeneID 4361) | 2 | 2.7 | 22 | 10.4 |
| MRE11 (GeneID 4361) | 3 | 1.01 | 10.1 | 9.48 |
| SLC66A1 (GeneID 54896) | 1 | -0.769 | -2.45 | 2.73 |
| SLC66A1 (GeneID 54896) | 2 | -0.576 | -1.08 | 3.81 |
| SLC66A1 (GeneID 54896) | 3 | -1.02 | -4.18 | 1.81 |
| SLC14A2 (GeneID 8170) | 1 | -0.774 | -2.48 | 4.55 |
| SLC14A2 (GeneID 8170) | 2 | 0.0557 | 3.36 | 5.58 |
| SLC14A2 (GeneID 8170) | 3 | 0.237 | 4.64 | 5.99 |
| NDUFAF8 (GeneID 284184) | 1 | 2.98 | 24 | 10.6 |
| NDUFAF8 (GeneID 284184) | 2 | 0.147 | 4 | 5.1 |
| NDUFAF8 (GeneID 284184) | 3 | -0.377 | 0.315 | 3.17 |
| OR1M1 (GeneID 125963) | 1 | 0.636 | 7.45 | 6.98 |
| OR1M1 (GeneID 125963) | 2 | -1.3 | -6.2 | 1.14 |
| OR1M1 (GeneID 125963) | 3 | -0.335 | 0.612 | 2.8 |
| PTH (GeneID 5741) | 1 | 0.109 | 3.73 | 6.1 |
| PTH (GeneID 5741) | 2 | -0.328 | 0.659 | 4.36 |
| PTH (GeneID 5741) | 3 | -0.595 | -1.22 | 4.56 |
| LRRC71 (GeneID 149499) | 1 | -0.598 | -1.24 | 3.41 |
| LRRC71 (GeneID 149499) | 2 | 0.163 | 4.12 | 4.18 |
| LRRC71 (GeneID 149499) | 3 | 0.885 | 9.2 | 6.27 |
| TPM2 (GeneID 7169) | 1 | -0.22 | 1.42 | 4.79 |
| TPM2 (GeneID 7169) | 2 | -0.685 | -1.85 | 3.87 |
| TPM2 (GeneID 7169) | 3 | 0.355 | 5.47 | 7.91 |

Entries listed above called active, once more:
| gene knocked down | siRNA no. | G2 robust z-score | G2 cells, % of GMNN control | raw share of cells in G2 (%) |
| --- | --- | --- | --- | --- |
| EIF3CL (GeneID 728689) | 1 | 5.12 (active) | 39 | 18.9 |
| AMBP (GeneID 259) | 2 | 6.08 (active) | 45.7 | 20.3 |
